Measurements reported in PubChem BioAssay AID504444 (National Center for Advancing Translational Sciences (NCATS), 2011).
About 7,500 (2.1%) of roughly 360,000 compounds were called active. Inconclusive means that the source gave no clear call. Such entries were picked first, then a sample of the others. Calls come from the whole dose curve; as a rule, active = well fitted inhibition curve with a large enough effect; inconclusive = small, poorly fitted or top-dose-only effect, or effect the other way; inactive = flat fitted curve, though single readings scatter. Where the call is inconclusive, the potency comes from a doubtful curve fit.

Assay: Nrf2 qHTS screen for inhibitors; note: nearly all actives have a fitted effect of over 60% in size
Conditions: A549 ARE-Fluc reporter, luciferase luminescence, 18-24 h; activity change, negative = inhibition: at 46 µM (top of the series)
Outline: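 Concentration-response testing used A549 ARE_Fluc cells at 5000 cells/well. Following an 18-24 h compound incubation, viability was read by fluorescence (Ex 405/Em 525) and luciferase output by luminescence.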
% is set by controls: 0 for no effect and ±100 for the full control effect; potency is the fitted concentration of half-maximal effect.

Structure (SMILES)	Potency	activity change, negative = inhibition
Cc1occc1C(=O)N/N=C/c1cnn(C)c1C	inconclusive: 25.9 µM [activator, single point]	
O=C1Cc2cc(S(=O)(=O)N3CCN(c4ccc(Cl)cc4)CC3)ccc2N1		inactive: -8.39% [at 92.2 µM]
N#Cc1nc(Nc2cccc(Br)c2)nc(NC2CCCC2)n1	inconclusive: 29.1 µM [falling, single point]	
Cc1cccc(-n2c(=O)c3ccccc3n3c(=S)[nH]nc23)c1C	inconclusive: 11.6 µM [falling, partial curve, poor fit]	
O=C(/C=C/c1ccc(F)cc1)Nc1cccc(S(=O)(=O)N2CCOCC2)c1	inconclusive: 29.1 µM [falling, single point]	
Cc1ccc(-n2nc3cc(C)c(NC(=S)NC(=O)/C=C/c4ccco4)cc3n2)cc1		inactive: 11.2%
CC(C)(C)c1csc(NC(=O)c2ccncc2)n1	active: 16.4 µM	
COC(=O)C(C)Sc1nc2c([nH]c3ccccc32)c(=O)n1C (stereo not drawn)	inconclusive: 29.1 µM [falling, single point]	
Cc1nn(C(C)C(=O)Nc2sc3c(c2C#N)CCCC3)c(C)c1[N+](=O)[O-] (stereo not drawn)	inconclusive: 29.1 µM [falling, single point]	
CC(=O)N/C(=N\OCc1ccc(Br)cc1)c1nonc1NC(C)=O	inconclusive: 4.11 µM [activator, full curve, poor fit]	
COc1ccc2nc(Nc3ccccc3OC)sc2c1	inconclusive: 0.58 µM [activator, full curve, poor fit]	
CC(C)NC(=O)C1CCC(Cn2c(=O)c3sccc3n(CC(=O)NCc3ccccc3)c2=O)CC1 (stereo not drawn)		inactive: -6.16%
Cc1cc(C)c2c(CC(=O)O)c(C)[nH]c2c1	inconclusive: 5.8 µM [activator, full curve, poor fit]	
CCCCn1nnc(NC(=O)c2ccco2)n1	inconclusive: 10.3 µM [activator, partial curve]	
COCCN1C(=O)C(O)=C(C(=O)c2ccco2)C1c1cccc(Oc2ccccc2)c1 (stereo not drawn)	inconclusive: 29.1 µM [falling, single point]	
CCCOc1c(Cl)cc(C(=O)N(Cc2cccc(OC)c2)C2CCS(=O)(=O)C2)cc1Cl (stereo not drawn)	inconclusive: 29.1 µM [falling, partial curve, poor fit]	
CCCn1nnnc1NCc1ccccc1OCC	inconclusive: 29.1 µM [falling, single point]	
COc1ccc(OC(=O)c2c(C)nn(-c3ccccc3)c2C)cc1	inconclusive: 18.4 µM [activator, single point]	
NC(=O)c1ccsc1NC(=O)CN1CCN(S(=O)(=O)c2ccccc2C(F)(F)F)CC1	inconclusive: 20.6 µM [falling, partial curve]	
Cc1ccc(-n2c(N)c(C(=O)Nc3c(C)n(C)n(-c4ccccc4)c3=O)c3nc4ccccc4nc32)cc1	inconclusive: 18.4 µM [falling, single point]	
CCOc1ccc(CCNC(=O)c2ccc3c(=O)n4c(nc3c2)CCCCC4)cc1		inactive: -0.27%
O=C(Nc1cc(=O)c2ccccc2o1)N1CCOCC1	inconclusive: 6.51 µM [falling, partial curve]	

Arranged by molar mass (low to high): three of the compounds above.
Structure (SMILES)	Potency	activity change, negative = inhibition
Cc1cc(C)c2c(CC(=O)O)c(C)[nH]c2c1	inconclusive: 5.8 µM [activator, full curve, poor fit]	
N#Cc1nc(Nc2cccc(Br)c2)nc(NC2CCCC2)n1	inconclusive: 29.1 µM [falling, single point]	
CC(C)NC(=O)C1CCC(Cn2c(=O)c3sccc3n(CC(=O)NCc3ccccc3)c2=O)CC1 (stereo not drawn)		inactive: -6.16%

Next part.

Structure (SMILES)	Potency	activity change, negative = inhibition
CC1CCCCC1NC(=O)CN1CCC(NC(=O)c2ccc([N+](=O)[O-])cc2)CC1 (stereo not drawn)	active: 7.31 µM	
COc1ccc(C(CNC(=O)/C=C/c2c(Cl)nc3ccccn23)N(C)C)cc1 (stereo not drawn)	inconclusive: 29.1 µM [activator, single point]	
CC(C)CCN1C(=O)c2cccc3c(N)ccc(c23)C1=O	inconclusive: 2.31 µM [activator, full curve, poor fit]	
CN(C)C(CNC(=O)c1cccc(S(=O)(=O)N2CCN(c3ccc(F)cc3)CC2)c1)c1ccccc1 (stereo not drawn)	inconclusive: 20.6 µM [falling, single point]	
C=CCN1C(=O)/C(=C/c2ccc(O)c(OC)c2)S/C1=N/c1nccs1		inactive: -3.95%
COc1ccccc1CNc1ccc(-c2nc(-c3ccco3)no2)cc1[N+](=O)[O-]	inconclusive: 23.1 µM [activator, partial curve]	
C#CCCc1ccccc1/C=[N+](/C)[O-]	inconclusive: 25.9 µM [activator, single point]	
Cc1ccc(-n2c(C)cc(/C=N/NC(N)=S)c2C)cc1		inactive: 18.2%
CC(C)(C)c1ccc(C(=O)c2c[nH]c(C(=O)NCc3cccnc3)c2)cc1	inconclusive: 23.1 µM [falling, single point]	
COC(=O)Cn1c(=O)c2cccn2c2cccnc21		inactive: 1.9%
CC(C)CCC(CCNCc1ccccn1)c1ccc(Cl)cc1 (stereo not drawn)		inactive: 4.96%
COc1ccc2cc(-c3ccon3)ccc2c1	inconclusive: 14.6 µM [activator, partial curve]	
COc1ccc(C(=O)NCCCNC(=O)c2cnccn2)cc1Br		inactive: -3.18%
CCN1C(=O)[C@H]2[C@@H](c3ccc(-c4ccc(C(C)=O)cc4)c(OC)c3)N3CCCC[C@@]3(C(=O)OC)[C@H]2C1=O	inconclusive: 20.6 µM [activator, single point]	
Cc1cc(C)c(S(=O)(=O)c2ccc(Cl)cc2)c(Cl)n1	inconclusive: 18.4 µM [falling, partial curve, poor fit]	
Cc1ccsc1CN(C(=O)c1oc2cc(Br)ccc2c1C)C1CCS(=O)(=O)C1 (stereo not drawn)	inconclusive: 23.1 µM [falling, single point]	
O=C(CSc1nnc(NC(=O)c2ccccc2F)s1)NC1CCCC1	inconclusive: 9.2 µM [activator, partial curve]	
O=C(Nc1nc2c(s1)CN(Cc1ccccc1)CC2)C1CCC1	inconclusive: 7.31 µM [activator, partial curve]	
Cc1cc(C(=O)Nc2ccc(C(C)C)cc2)c2c(C)nn(-c3ccccc3)c2n1		inactive: 2.9%
COc1ccc(C)cc1N(C(=O)c1snc(C(N)=O)c1N)C(C(=O)NC1CCCCC1)c1ccc(C)o1 (stereo not drawn)	inconclusive: 29.1 µM [falling, single point]	
O=C(OCc1csc(-c2ccccc2)n1)c1cccs1	inconclusive: 13 µM [activator, partial curve]	
